Tested on: A549 cells
Test: IC50 for A549 cells in static 2D cultures (taken from the literature)
Assay type: cell-based
Details: A549 static 2D IC50 versus human Cmax

| SMILES | fold increase of static 2D IC50 over Cmax |
| --- | --- |
| NC1(c2ccc(-c3nc4ccn5c(=O)[nH]nc5c4cc3-c3ccccc3)cc2)CCC1 [MK2206] | ~19 fold |
| Cn1cnc2c(F)c(Nc3ccc(Br)cc3Cl)c(C(=O)NOCCO)cc21 [AZD6244/Selumetinib, Selumetinib] | 3.5 fold |
